Test: Absorbance and fluorescence emission after reaction with homocysteine in aqueous solution (pH 7.4, PBS buffer)
Conditions: Compound 1 10 μM + DL-homocysteine 10 μM
Text: In this connection, the cell that puts the compound into each device was a standard quartz cell with a thickness of 1 cm (internal volume=[…]).

O=[N+]([O-])c1ccc(Oc2ccncc2)c2nonc12 [Compound 1, 4-nitro-7-(pyridine-4-yloxy)benzo[c] [1,2,5] oxadiazole]
wavelength at which the fluorescence emission spectrum increased (fluorescence turn-on) (excitation 460 nm): 550 nm
wavelength at which the absorbance spectrum increased (stirred 10 minutes): 488 nm

— patent publication US20250224399A1, “METHOD FOR DETECTING HOMOCYSTEINE IN PLASMA AND METHOD FOR DIAGNOSING GLIOBLASTOMA BY USING NOVEL FLUORESCENT PROBE” (UNIVERSITY-INDUSTRY COOPERATION GROUP OF KYUNG HEE …, priority 2022, published 2025)
